From patent EP4556018A1 (OSAKA UNIVERSITY, dated 2025)
Results are given in words; binding and its absence hold for the method and conditions named. Some binding calls cover weakened binding; strength is not graded here.

Amino acid sequences for entries named in this document (tags omitted). A change or cut given only in a name is not applied to a line headed by its entry. Chains listed by the source or under a name are the forms on record and can include a tag or linker.
UniProt Q6PDQ2: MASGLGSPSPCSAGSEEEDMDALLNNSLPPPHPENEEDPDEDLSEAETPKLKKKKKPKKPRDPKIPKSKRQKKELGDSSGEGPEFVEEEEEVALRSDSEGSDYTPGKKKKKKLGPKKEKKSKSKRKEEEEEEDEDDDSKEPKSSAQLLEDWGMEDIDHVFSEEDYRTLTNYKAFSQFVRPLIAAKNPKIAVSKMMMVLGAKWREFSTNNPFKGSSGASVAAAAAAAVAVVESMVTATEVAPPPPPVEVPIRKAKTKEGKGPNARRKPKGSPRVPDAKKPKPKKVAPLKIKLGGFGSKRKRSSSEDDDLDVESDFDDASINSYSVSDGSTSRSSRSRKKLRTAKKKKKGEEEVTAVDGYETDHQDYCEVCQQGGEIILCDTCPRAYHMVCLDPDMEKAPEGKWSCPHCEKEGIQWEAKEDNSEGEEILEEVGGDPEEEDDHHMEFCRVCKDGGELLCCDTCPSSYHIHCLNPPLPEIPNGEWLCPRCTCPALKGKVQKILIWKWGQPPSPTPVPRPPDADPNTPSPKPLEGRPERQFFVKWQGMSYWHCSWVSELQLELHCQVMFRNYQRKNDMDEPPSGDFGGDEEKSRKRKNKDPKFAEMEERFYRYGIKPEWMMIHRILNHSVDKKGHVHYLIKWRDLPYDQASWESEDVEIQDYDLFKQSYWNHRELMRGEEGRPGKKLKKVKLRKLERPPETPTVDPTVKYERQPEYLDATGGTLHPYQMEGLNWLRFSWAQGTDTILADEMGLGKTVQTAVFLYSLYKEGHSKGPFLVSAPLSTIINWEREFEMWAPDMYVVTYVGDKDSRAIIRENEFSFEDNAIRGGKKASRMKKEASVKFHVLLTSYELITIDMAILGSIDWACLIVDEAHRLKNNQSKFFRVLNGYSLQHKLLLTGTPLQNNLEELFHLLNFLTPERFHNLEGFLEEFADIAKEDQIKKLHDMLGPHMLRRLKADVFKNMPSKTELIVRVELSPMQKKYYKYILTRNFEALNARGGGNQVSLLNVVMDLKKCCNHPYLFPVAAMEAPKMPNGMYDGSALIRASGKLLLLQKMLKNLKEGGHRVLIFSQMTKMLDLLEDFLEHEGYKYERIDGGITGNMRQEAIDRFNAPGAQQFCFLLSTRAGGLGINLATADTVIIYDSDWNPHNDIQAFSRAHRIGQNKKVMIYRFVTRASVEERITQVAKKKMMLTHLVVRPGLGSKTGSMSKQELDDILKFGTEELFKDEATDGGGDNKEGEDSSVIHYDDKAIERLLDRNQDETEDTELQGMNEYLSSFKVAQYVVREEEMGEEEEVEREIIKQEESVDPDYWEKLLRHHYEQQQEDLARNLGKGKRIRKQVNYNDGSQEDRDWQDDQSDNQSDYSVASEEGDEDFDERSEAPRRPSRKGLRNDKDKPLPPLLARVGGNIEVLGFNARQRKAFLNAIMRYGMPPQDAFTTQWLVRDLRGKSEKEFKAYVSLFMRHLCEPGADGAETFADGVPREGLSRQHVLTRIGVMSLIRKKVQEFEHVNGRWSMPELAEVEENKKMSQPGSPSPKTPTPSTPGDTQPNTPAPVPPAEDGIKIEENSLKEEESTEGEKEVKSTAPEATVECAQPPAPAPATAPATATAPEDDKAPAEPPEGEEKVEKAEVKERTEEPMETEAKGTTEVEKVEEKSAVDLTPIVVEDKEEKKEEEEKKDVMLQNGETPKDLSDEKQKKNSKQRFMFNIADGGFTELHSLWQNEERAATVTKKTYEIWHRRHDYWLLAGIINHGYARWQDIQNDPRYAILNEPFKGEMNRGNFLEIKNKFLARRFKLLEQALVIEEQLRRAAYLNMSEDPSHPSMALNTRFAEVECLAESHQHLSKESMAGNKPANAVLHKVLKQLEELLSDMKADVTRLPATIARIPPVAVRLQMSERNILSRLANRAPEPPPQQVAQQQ
UniProt Q03267: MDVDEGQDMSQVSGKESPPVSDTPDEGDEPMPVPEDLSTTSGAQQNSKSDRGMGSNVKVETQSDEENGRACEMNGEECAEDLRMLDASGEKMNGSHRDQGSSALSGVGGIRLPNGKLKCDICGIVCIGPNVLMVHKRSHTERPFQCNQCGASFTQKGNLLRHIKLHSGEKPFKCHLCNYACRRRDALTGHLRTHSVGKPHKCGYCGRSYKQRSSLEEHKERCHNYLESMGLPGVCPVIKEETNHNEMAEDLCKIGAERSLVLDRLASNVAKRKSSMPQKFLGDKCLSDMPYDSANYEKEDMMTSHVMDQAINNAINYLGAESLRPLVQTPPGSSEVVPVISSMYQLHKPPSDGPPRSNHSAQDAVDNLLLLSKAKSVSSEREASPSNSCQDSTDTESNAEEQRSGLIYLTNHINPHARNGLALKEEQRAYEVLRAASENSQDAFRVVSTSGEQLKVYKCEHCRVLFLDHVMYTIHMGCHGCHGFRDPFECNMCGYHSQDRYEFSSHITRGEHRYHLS
Ikzf1ΔE5 expressed in Treg cells of Foxp3^CreIkE5^f/f mice (Q03267, form named): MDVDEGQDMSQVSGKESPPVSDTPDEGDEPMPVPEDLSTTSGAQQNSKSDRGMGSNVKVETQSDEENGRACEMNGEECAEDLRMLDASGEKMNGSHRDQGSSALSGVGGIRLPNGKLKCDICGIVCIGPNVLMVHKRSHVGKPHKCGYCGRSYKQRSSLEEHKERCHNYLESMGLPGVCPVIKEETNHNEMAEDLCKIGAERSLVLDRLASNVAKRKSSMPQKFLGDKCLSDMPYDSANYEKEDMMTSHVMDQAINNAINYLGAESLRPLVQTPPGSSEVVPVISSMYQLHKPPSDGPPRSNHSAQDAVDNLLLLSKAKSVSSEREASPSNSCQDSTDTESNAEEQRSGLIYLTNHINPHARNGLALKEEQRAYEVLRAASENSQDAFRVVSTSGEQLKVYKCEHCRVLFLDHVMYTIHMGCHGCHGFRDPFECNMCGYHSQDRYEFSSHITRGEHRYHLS

Legend:
[1] = molecular target: CHD4 of mouse Treg cells (mouse) (UniProt Q6PDQ2); assay: immunoprecipitation of Ikzf1 from Ikzf1-expressing mouse Treg cells, Simple Western with anti-CHD4
[2] = molecular target: CHD4 of mouse Treg cells (mouse) (UniProt Q6PDQ2); assay: immunoprecipitation with α-Ikzf1 from Ikzf1ΔE5-expressing mouse Treg cells, Simple Western with anti-CHD4

binding [1]	binding [2]	Substance
binds		endogenous Ikzf1 of mouse Treg cells (Foxp3^Cre) (from UniProt Q03267 1-517)
	binds	Ikzf1ΔE5 expressed in Treg cells of Foxp3^CreIkE5^f/f mice (from UniProt Q03267 1-517)
